Experimental data published in paper PMC9663158.
Results are given in words; binding and its absence hold for the method and conditions named. Binding seen in cells or lysates may run through a third protein. Some binding calls cover weakened binding; strength is not graded here.

The chains behind the UniProt entries cited, without tags or fusion partners.
UniProt Q15561: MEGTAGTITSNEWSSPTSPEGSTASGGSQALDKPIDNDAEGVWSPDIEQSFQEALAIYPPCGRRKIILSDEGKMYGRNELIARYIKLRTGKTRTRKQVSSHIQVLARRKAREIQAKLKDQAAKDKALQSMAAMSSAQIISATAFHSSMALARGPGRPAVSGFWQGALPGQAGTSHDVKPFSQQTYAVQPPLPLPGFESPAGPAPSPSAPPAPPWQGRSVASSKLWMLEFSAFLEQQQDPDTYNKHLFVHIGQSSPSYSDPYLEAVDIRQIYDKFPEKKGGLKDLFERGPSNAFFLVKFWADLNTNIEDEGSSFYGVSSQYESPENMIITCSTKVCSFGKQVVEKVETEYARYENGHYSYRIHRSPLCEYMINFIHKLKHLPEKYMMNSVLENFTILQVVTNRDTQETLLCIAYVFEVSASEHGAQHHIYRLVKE

Molecular target: FLAG-tagged TEAD4 (human) (UniProt Q15561)
Test: co-IP; 293T cells cotransfected with exogenous RAD21 and FLAG-tagged TEAD4; IP lysis buffer 50 mM Tris-HCl, 150 mM NaCl, 1.0% NP-40; protein G Dynabeads overnight at 4°C; immunoblotting

- binding: binds
B1: exogenous RAD21 (protein, UniProt O60216 1-631)
chain: MFYAHFVLSKRGPLAKIWLAAHWDKKLTKAHVFECNLESSVESIISPKVKMALRTSGHLLLGVVRIYHRKAKYLLADCNEAFIKIKMAFRPGVVDLPEENREAAYNAITLPEEFHDFDQPLPDLDDIDVAQQFSLNQSRVEEITMREEVGNISILQENDFGDFGMDDREIMREGSAFEDDDMLVSTTTSNLLLESEQSTSNLNEKINHLEYEDQYKDDNFGEGNDGGILDDKLISNNDGGIFDDPPALSEAGVMLPEQPAHDDMDEDDNVSMGGPDSPDSVDPVEPMPTMTDQTTLVPNEEEAFALEPIDITVKETKAKRKRKLIVDSVKELDSKTIRAQLSDYSDIVTTLDLAPPTKKLMMWKETGGVEKLFSLPAQPLWNNRLLKLFTRCLTPLVPEDLRKRRKGGEADNLDEFLKEFENPEVPREDQQQQHQQRDVIDEPIIEEPSRLQESVMEASRTNIDESAMPPPPPQGVKRKAGQIDPEPVMPPQQVEQMEIPPVELPPEEPPNICQLIPELELLPEKEKEKEKEKEDDEEEEDEDASGGDQDQEERRWNKRTQQMLHGLQRALAKTGAESISLLELCRNTNRKQAAAKFYSFLVLKKQQAIELTQEEPYSDIIATPGPRFHII
